Assay [1] has as its target T1, YFP-ADNP, wild type, stably and inducibly expressed in NIH3T3 cells (UniProt Q9Z103).
T1 sequence: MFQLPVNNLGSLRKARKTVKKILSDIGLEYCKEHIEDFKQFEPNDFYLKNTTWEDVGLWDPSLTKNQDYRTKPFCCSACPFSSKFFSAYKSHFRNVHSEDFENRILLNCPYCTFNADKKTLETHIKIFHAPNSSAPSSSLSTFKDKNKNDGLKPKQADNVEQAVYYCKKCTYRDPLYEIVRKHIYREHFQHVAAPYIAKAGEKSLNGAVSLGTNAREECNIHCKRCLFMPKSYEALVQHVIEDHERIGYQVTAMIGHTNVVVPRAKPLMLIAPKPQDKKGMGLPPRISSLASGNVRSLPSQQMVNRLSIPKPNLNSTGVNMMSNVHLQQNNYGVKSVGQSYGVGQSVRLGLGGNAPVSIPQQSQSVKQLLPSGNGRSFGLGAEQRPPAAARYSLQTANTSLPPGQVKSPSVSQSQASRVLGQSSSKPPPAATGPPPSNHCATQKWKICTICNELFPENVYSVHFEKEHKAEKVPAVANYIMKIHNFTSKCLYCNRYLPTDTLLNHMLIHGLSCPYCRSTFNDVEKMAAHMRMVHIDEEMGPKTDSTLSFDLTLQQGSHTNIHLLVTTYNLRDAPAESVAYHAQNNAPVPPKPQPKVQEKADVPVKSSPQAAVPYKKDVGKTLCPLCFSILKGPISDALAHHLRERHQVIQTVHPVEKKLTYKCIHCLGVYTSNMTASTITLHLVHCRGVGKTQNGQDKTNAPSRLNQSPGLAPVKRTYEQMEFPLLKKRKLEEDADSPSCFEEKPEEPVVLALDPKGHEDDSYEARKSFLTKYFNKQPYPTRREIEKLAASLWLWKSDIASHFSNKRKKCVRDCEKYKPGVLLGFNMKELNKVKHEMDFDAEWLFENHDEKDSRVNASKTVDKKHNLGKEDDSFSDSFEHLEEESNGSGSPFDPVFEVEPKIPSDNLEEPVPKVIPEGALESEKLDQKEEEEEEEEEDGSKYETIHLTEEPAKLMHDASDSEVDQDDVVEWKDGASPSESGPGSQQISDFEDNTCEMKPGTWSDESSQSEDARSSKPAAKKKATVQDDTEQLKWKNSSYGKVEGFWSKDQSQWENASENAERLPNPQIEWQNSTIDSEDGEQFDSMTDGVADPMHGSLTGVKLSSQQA
Description: co-IP; YFP-ADNP fusion proteins or YFP immunoprecipitated with anti-GFP antibodies from nuclear extracts of stable NIH3T3 cell lines; western blot with anti-ADNP antibody. (A western blot detects proteins with antibodies after separation by electrophoresis.)

Assay [2] addresses H3unmod. peptide, …-biotin. In words: pull-down; H3K9me3 and unmodified H3 peptides on magnetic beads, TNT reticulocyte lysate with FLAG-tagged ADNP, no HP1 added; anti-FLAG western blot; only the target purified.
In assay [3] the target is H3unmod. peptide, …-biotin. In words: pull-down; H3 peptides on magnetic beads, TNT reticulocyte lysate with FLAG-tagged ADNP (wt or point mutants) together with added recombinant His6-HP1 (α, β, γ or β W170A); anti-FLAG and anti-His6 western blots; only the target purified.

Results are given in words; binding and its absence hold for the method and conditions named. In cells and extracts the contact can be indirect. Some entries that bind do so weakly or less than the wild type. Sequences can lack the tags named with a protein.

B1: ADNP, endogenous in NIH3T3 nuclear extract (protein, UniProt Q9Z103 1-1108)
chain: T1 sequence
Take B1: the binding entry in assay [1] is “binds”.

B2: FLAG-tagged ADNP, wild type, expressed in TNT reticulocyte extract (protein, UniProt Q9Z103 1-1108)
chain: T1 sequence
With B2, the binding result in assay [2] and in assay [3] was “no binding” each time.

The record behind these values is publication PMC3022755, “HP1 Recruits Activity-Dependent Neuroprotective Protein to H3K9me3 Marked Pericentromeric Heterochromatin for Silencing of Major Satellite Repeats” (PLoS ONE, 2011).
